{
  "source": "patent US20250283871A1",
  "about": "“COMPOSITIONS AND METHODS FOR MODULATING THE INTERACTION BETWEEN SS18-SSX FUSION ONCOPROTEIN AND NUCLEOSOMES” (Dana-Farber Cancer Institute, Inc., priority 2020, published 2025)",
  "molecules": {"B1": {"name": "GK (protein, UniProt P32189 1-559, looked up)", "Glycerol kinase": "MAASKKAVLGPLVGAVDQGTSSTRFLVFNSKTAELLSHHQVEIKQEFPREGWVEQDPKEILHSVYECIEKTCEKLGQLNIDISNIKAIGVSNQRETTVVWDKITGEPLYNAVVWLDLRTQSTVESLSKRIPGNNNFVKSKTGLPLSTYFSAVKLRWLLDNVRKVQKAVEEKRALFGTIDSWLIWSLTGGVNGGVHCTDVTNASRTMLFNIHSLEWDKQLCEFFGIPMEILPNVRSSSEIYGLMKISHSVKAGALEGVPISGCLGDQSAALVGQMCFQIGQAKNTYGTGCFLLCNTGHKCVFSDHGLLTTVAYKLGRDKPVYYALEGSVAIAGAVIRWLRDNLGIIKTSEEIEKLAKEVGTSYGCYFVPAFSGLYAPYWEPSARGIICGLTQFTNKCHIAFAALEAVCFQTREILDAMNRDCGIPLSHLQVDGGMTSNKILMQLQADILYIPVVKPSMPETTALGAAMAAGAAEGVGVWSLEPEDLSAVTMERFEPQINAEESEIRYSTWKKAVMKSMGWVTTQSPESGDPSIFCSLPLGFFIVSSMVMLIGARYISGIP"}, "B2": {"name": "COQ8B (protein, UniProt Q96D53 1-544, looked up)", "Atypical kinase COQ8B, …": "MWLKVGGLLRGTGGQLGQTVGWPCGALGPGPHRWGPCGGSWAQKFYQDGPGRGLGEEDIRRAREARPRKTPRPQLSDRSRERKVPASRISRLANFGGLAVGLGLGVLAEMAKKSMPGGRLQSEGGSGLDSSPFLSEANAERIVQTLCTVRGAALKVGQMLSIQDNSFISPQLQHIFERVRQSADFMPRWQMLRVLEEELGRDWQAKVASLEEVPFAAASIGQVHQGLLRDGTEVAVKIQYPGIAQSIQSDVQNLLAVLKMSAALPAGLFAEQSLQALQQELAWECDYRREAACAQNFRQLLANDPFFRVPAVVKELCTTRVLGMELAGGVPLDQCQGLSQDLRNQICFQLLTLCLRELFEFRFMQTDPNWANFLYDASSHQVTLLDFGASREFGTEFTDHYIEVVKAAADGDRDCVLQKSRDLKFLTGFETKAFSDAHVEAVMILGEPFATQGPYDFGSGETARRIQDLIPVLLRHRLCPPPEETYALHRKLAGAFLACAHLRAHIACRDLFQDTYHRYWASRQPDAATAGSLPTKGDSWVDPS"}, "B3": {"name": "AUP1 (protein, UniProt Q9Y679 1-410, looked up)", "Lipid droplet-regulating VLDL …": "MELPSGPGPERLFDSHRLPGDCFLLLVLLLYAPVGFCLLVLRLFLGIHVFLVSCALPDSVLRRFVVRTMCAVLGLVARQEDSGLRDHSVRVLISNHVTPFDHNIVNLLTTCSTPLLNSPPSFVCWSRGFMEMNGRGELVESLKRFCASTRLPPTPLLLFPEEEATNGREGLLRFSSWPFSIQDVVQPLTLQVQRPLVSVTVSDASWVSELLWSLFVPFTVYQVRWLRPVHRQLGEANEEFALRVQQLVAKELGQTGTRLTPADKAEHMKRQRHPRLRPQSAQSSFPPSPGPSPDVQLATLAQRVKEVLPHVPLGVIQRDLAKTGCVDLTITNLLEGAVAFMPEDITKGTQSLPTASASKFPSSGPVTPQPTALTFAKSSWARQESLQERKQALYEYARRRFTERRAQEAD"}, "B4": {"name": "PYCR1 (protein, UniProt P32322 2-319, looked up)", "Pyrroline-5-carboxylate …": "SVGFIGAGQLAFALAKGFTAAGVLAAHKIMASSPDMDLATVSALRKMGVKLTPHNKETVQHSDVLFLAVKPHIIPFILDEIGADIEDRHIVVSCAAGVTISSIEKKLSAFRPAPRVIRCMTNTPVVVREGATVYATGTHAQVEDGRLMEQLLSSVGFCTEVEEDLIDAVTGLSGSGPAYAFTALDALADGGVKMGLPRRLAVRLGAQALLGAAKMLLHSEQHPGQLKDNVSSPGGATIHALHVLESGGFRSLLINAVEASCIRTRELQSMADQEQVSPAAIKKTILDKVKLDSPAGTALSPSGHTKLLPRSLAPAGKD"}, "B5": {"name": "TMED10 (protein, UniProt P49755 32-219, looked up)", "Transmembrane emp24 …": "ISFHLPINSRKCLREEIHKDLLVTGAYEISDQSGGAGGLRSHLKITDSAGHILYSKEDATKGKFAFTTEDYDMFEVCFESKGTGRIPDQLVILDMKHGVEAKNYEEIAKVEKLKPLEVELRRLEDLSESIVNDFAYMKKREEEMRDTNESTNTRVLYFSIFSMFCLIGLATWQVFYLRRFFKAKKLIE"}, "B6": {"name": "COPG1 (protein, UniProt Q9Y678 1-874, looked up)", "Coatomer subunit gamma-1": "MLKKFDKKDEESGGGSNPFQHLEKSAVLQEARVFNETPINPRKCAHILTKILYLINQGEHLGTTEATEAFFAMTKLFQSNDPTLRRMCYLTIKEMSCIAEDVIIVTSSLTKDMTGKEDNYRGPAVRALCQITDSTMLQAIERYMKQAIVDKVPSVSSSALVSSLHLLKCSFDVVKRWVNEAQEAASSDNIMVQYHALGLLYHVRKNDRLAVNKMISKVTRHGLKSPFAYCMMIRVASKQLEEEDGSRDSPLFDFIESCLRNKHEMVVYEAASAIVNLPGCSAKELAPAVSVLQLFCSSPKAALRYAAVRTLNKVAMKHPSAVTACNLDLENLVTDSNRSIATLAITTLLKTGSESSIDRLMKQISSFMSEISDEFKVVVVQAISALCQKYPRKHAVLMNFLFTMLREEGGFEYKRAIVDCIISIIEENSESKETGLSHLCEFIEDCEFTVLATRILHLLGQEGPKTTNPSKYIRFIYNRVVLEHEEVRAGAVSALAKFGAQNEEMLPSILVLLKRCVMDDDNEVRDRATFYLNVLEQKQKALNAGYILNGLTVSIPGLERALQQYTLEPSEKPFDLKSVPLATAPMAEQRTESTPITAVKQPEKVAATRQEIFQEQLAAVPEFRGLGPLFKSSPEPVALTESETEYVIRCTKHTFTNHMVFQFDCTNTLNDQTLENVTVQMEPTEAYEVLCYVPARSLPYNQPGTCYTLVALPKEDPTAVACTFSCMMKFTVKDCDPTTGETDDEGYEDEYVLEDLEVTVADHIQKVMKLNFEAAWDEVGDEFEKEETFTLSTIKTLEEAVGNIVKFLGMHPCERSDKVPDNKNTHTLLLAGVFRGGHDILVRSRLLLLDTVTMQVTARSLEELPVDIILASVG"}, "B7": {"name": "SSR1 (protein, UniProt P43307 19-286, looked up)", "Translocon-associated protein …": "VLFRGGPRGLLAVAQDLTEDEETVEDSIIEDEDDEAEVEEDEPTDLVEDKEEEDVSGEPEASPSADTTILFVKGEDFPANNIVKFLVGFTNKGTEDFIVESLDASFRYPQDYQFYIQNFTALPLNTVVPPQRQATFEYSFIPAEPMGGRPFGLVINLNYKDLNGNVFQDAVFNQTVTVIEREDGLDGETIFMYMFLAGLGLLVIVGLHQLLESRKRKRPIQKVEMGTSSQNDVDMSWIPQETLNQINKASPRRLPRKRAQKRSVGSDE"}, "B8": {"name": "GTPBP2 (protein, UniProt Q9BX10 1-602, looked up)", "GTP-binding protein 2": "MDSRVSELFGGCCRPGGGPAVGGTLKARGAGSSSGCGGPKGKKKNGRNRGGKANNPPYLPPEAEDGNIEYKLKLVNPSQYRFEHLVTQMKWRLQEGRGEAVYQIGVEDNGLLVGLAEEEMRASLKTLHRMAEKVGADITVLREREVDYDSDMPRKITEVLVRKVPDNQQFLDLRVAVLGNVDSGKSTLLGVLTQGELDNGRGRARLNLFRHLHEIQSGRTSSISFEILGFNSKGEVVNYSDSRTAEEICESSSKMITFIDLAGHHKYLHTTIFGLTSYCPDCALLLVSANTGIAGTTREHLGLALALKVPFFIVVSKIDLCAKTTVERTVRQLERVLKQPGCHKVPMLVTSEDDAVTAAQQFAQSPNVTPIFTLSSVSGESLDLLKVFLNILPPLTNSKEQEELMQQLTEFQVDEIYTVPEVGTVVGGTLSSGICREGDQLVVGPTDDGCFLELRVCSIQRNRSACRVLRAGQAATLALGDFDRALLRKGMVMVSPEMNPTICSVFEAEIVLLFHATTFRRGFQVTVHVGNVRQTAVVEKIHAKDKLRTGEKAVVRFRFLKHPEYLKVGAKLLFREGVTKGIGHVTDVQAITAGEAQANMGF"}, "B9": {"name": "ABCD3 (protein, UniProt P28288 1-659, looked up)", "ATP-binding cassette …": "MAAFSKYLTARNSSLAGAAFLLLCLLHKRRRALGLHGKKSGKPPLQNNEKEGKKERAVVDKVFFSRLIQILKIMVPRTFCKETGYLVLIAVMLVSRTYCDVWMIQNGTLIESGIIGRSRKDFKRYLLNFIAAMPLISLVNNFLKYGLNELKLCFRVRLTKYLYEEYLQAFTYYKMGNLDNRIANPDQLLTQDVEKFCNSVVDLYSNLSKPFLDIVLYIFKLTSAIGAQGPASMMAYLVVSGLFLTRLRRPIGKMTITEQKYEGEYRYVNSRLITNSEEIAFYNGNKREKQTVHSVFRKLVEHLHNFILFRFSMGFIDSIIAKYLATVVGYLVVSRPFLDLSHPRHLKSTHSELLEDYYQSGRMLLRMSQALGRIVLAGREMTRLAGFTARITELMQVLKDLNHGKYERTMVSQQEKGIEGVQVIPLIPGAGEIIIADNIIKFDHVPLATPNGDVLIRDLNFEVRSGANVLICGPNGCGKSSLFRVLGELWPLFGGRLTKPERGKLFYVPQRPYMTLGTLRDQVIYPDGREDQKRKGISDLVLKEYLDNVQLGHILEREGGWDSVQDWMDVLSGGEKQRMAMARLFYHKPQFAILDECTSAVSVDVEGYIYSHCRKVGITLFTVSHRKSLWKHHEYYLHMDGRGNYEFKQITEDTVEFGS"}, "B10": {"name": "GCDH (protein, UniProt Q92947 45-438, looked up)", "Glutaryl-CoA dehydrogenase, …": "RPEFDWQDPLVLEEQLTTDEILIRDTFRTYCQERLMPRILLANRNEVFHREIISEMGELGVLGPTIKGYGCAGVSSVAYGLLARELERVDSGYRSAMSVQSSLVMHPIYAYGSEEQRQKYLPQLAKGELLGCFGLTEPNSGSDPSSMETRAHYNSSNKSYTLNGTKTWITNSPMADLFVVWARCEDGCIRGFLLEKGMRGLSAPRIQGKFSLRASATGMIIMDGVEVPEENVLPGASSLGGPFGCLNNARYGIAWGVLGASEFCLHTARQYALDRMQFGVPLARNQLIQKKLADMLTEITLGLHACLQLGRLKDQDKAAPEMVSLLKRNNCGKALDIARQARDMLGGNGISDEYHVIRHAMNLEAVNTYEGTHDIHALILGRAITGIQAFTASK"}},
  "data": [
    {"system": "BAF complex subunits and histone proteins", "test": "Mass spectrometry proteomics of purified HA-SS18 WT and HA-SS18-SSX1 complexes (Tables 5A-5E)", "parameters": "species or system human", "details": "HA-SS18SSX1 purification, NE (soluble nuclear extract) fraction, HEK-293T; peptides per identified protein", "values": [
      {"molecule": "B1", "Total (total peptides)": 3, "Unique (unique peptides)": 3},
      {"molecule": "B2", "Total (total peptides)": 3, "Unique (unique peptides)": 3},
      {"molecule": "B3", "Total (total peptides)": 3, "Unique (unique peptides)": 3},
      {"molecule": "B4", "Total (total peptides)": 3, "Unique (unique peptides)": 3},
      {"molecule": "B5", "Total (total peptides)": 3, "Unique (unique peptides)": 3},
      {"molecule": "B6", "Total (total peptides)": 3, "Unique (unique peptides)": 3},
      {"molecule": "B7", "Total (total peptides)": 3, "Unique (unique peptides)": 3},
      {"molecule": "B8", "Total (total peptides)": 3, "Unique (unique peptides)": 3},
      {"molecule": "B9", "Total (total peptides)": 3, "Unique (unique peptides)": 3},
      {"molecule": "B10", "Total (total peptides)": 3, "Unique (unique peptides)": 3}
    ]},
    {"system": "BAF complex subunits and histone proteins", "test": "Mass spectrometry proteomics of purified HA-SS18 WT and HA-SS18-SSX1 complexes (Tables 5A-5E)", "parameters": "species or system human", "details": "HA-SS18WT_NE_peptides: HA-SS18 WT complexes purified from nuclear extract (NE), HEK-293T; label = protein identified (Gene Symbol)", "values": [
      {"molecule": "B1", "Total (peptides)": 3, "Unique (peptides)": 3},
      {"molecule": "B2", "Total (peptides)": 4, "Unique (peptides)": 4},
      {"molecule": "B6", "Total (peptides)": 3, "Unique (peptides)": 3},
      {"molecule": "B7", "Total (peptides)": 3, "Unique (peptides)": 3},
      {"molecule": "B8", "Total (peptides)": 3, "Unique (peptides)": 3},
      {"molecule": "B9", "Total (peptides)": 3, "Unique (peptides)": 3},
      {"molecule": "B10", "Total (peptides)": 4, "Unique (peptides)": 4}
    ]},
    {"system": "BAF complex subunits and histone proteins", "test": "Mass spectrometry proteomics of purified HA-SS18 WT and HA-SS18-SSX1 complexes (Tables 5A-5E)", "parameters": "species or system human", "details": "HA-SS18WT_NE_peptides: proteins co-purified with HA-SS18 WT from nuclear extract (NE), HEK-293T", "values": [
      {"molecule": "B3", "Total (peptides)": 1, "Unique (peptides)": 1},
      {"molecule": "B4", "Total (peptides)": 1, "Unique (peptides)": 1},
      {"molecule": "B5", "Total (peptides)": 2, "Unique (peptides)": 2}
    ]}
  ]
}
